Values from PubChem BioAssay AID1259405 (NCATS, 2018)

- Aim: 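Mouse-designed siRNAs used to find CHO productivity engineering targets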 (primary screen)
- Cell system: Chinese hamster CHO-K1 ovary cells with stable secreted eGFP expression
- Reagents: single siRNA against mouse genes, 0.8 pmol siRNA per well (2 µl of 400 nM stock)
- Timing: 3 days
- Measurement: 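Percent of the per-plate non-targeting control median for intracellular GFP per well by laser scanning cytometry and for cell viability by ATP luminescence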
- Scale: GFP, % of control: higher = more GFP per well, higher productivity; viability (ATP), % of control: higher = more viable cells (more ATP)
- Rule for the call: 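Called active when intracellular GFP, relative to negative control, is at or above 120%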
The deposit covers about 50,000 reagents; this is an unselected part. About 4,000 of all reagents (8%) were called active. 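Mouse siRNA library applied to hamster cells; one well for each siRNA.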 A number with no mark means an inactive call. The numbers tell different reagents against one gene apart.

Gene,reagent no.,"GFP, % of control","viability (ATP), % of control"
Trim33,1,73.5,94.2
Trim33,2,48.3,68.8
Cav1,1,35.9,26.7
Cav1,2,87.4,88
Heyl,1,62.8,59.8
Heyl,2,70.5,63.9
Heyl,3,117,107
4632433K11Rik,1,92,99.5
4632433K11Rik,2,76.7,65.2
4632433K11Rik,3,123 (active),66.3
Shpk,1,53.7,73.8
Myh10,1,58.4,77.4
Myh10,2,78.3,79.7
Cdc42ep5,1,74.2,88.9
Cdc42ep5,2,104,112
Cdc42ep5,3,89.6,93.2
Ide,1,111,82.8
Ide,2,62.2,46.1
Ide,3,74.8,53.3
Fam151a,1,86.7,81.6
Fam151a,2,104,70.8
Fam151a,3,165 (active),150
Slc39a1,1,63.4,51.6
Slc39a1,2,148 (active),82
Slc39a1,3,137 (active),104
Lancl1,1,60.5,103
Lancl1,2,65.9,77.2
Scamp5,1,56,84
Scamp5,2,52.7,61
Scamp5,3,84.6,88.5
Or4c120,1,49.1,38.3
Or4c120,2,83.6,66.6
Or4c120,3,43.1,74.6
Kctd2,1,51.7,58.4
Kctd2,2,72.2,57.2
Kctd2,3,40.7,36.8

5 entries from above, set out differently:
| Gene | reagent no. | GFP, % of control | viability (ATP), % of control |
| --- | --- | --- | --- |
| Fam151a | 3 | 165 (active) | 150 |
| Slc39a1 | 1 | 63.4 | 51.6 |
| Slc39a1 | 2 | 148 (active) | 82 |
| Slc39a1 | 3 | 137 (active) | 104 |
| Lancl1 | 1 | 60.5 | 103 |

Next results follow.
Gene,reagent no.,"GFP, % of control","viability (ATP), % of control"
Dlg2,1,99.3,91.1
Dlg2,2,99.6,72.6
Scp2,1,50.8,42.9
Scp2,2,68.4,80.8
Scp2,3,38.7,48.4
Dgkk,1,208 (active),64.1
Dgkk,2,151 (active),137
Dgkk,3,84.8,71.2
Mturn,1,71.5,46.2
Mturn,2,83.9,68.4
Mturn,3,104,92.2
Cd300ld3,1,194 (active),77.4
Cd300ld3,2,71.6,71.8
Cd300ld3,3,105,79.2
Pcf11,1,88.9,74.9
Pcf11,2,118,87.4
Pcf11,3,83.7,74.1
Tpmt,1,50.9,58
Tpmt,2,76.8,82.2
Tpmt,3,187 (active),107
Pou2f2,1,71.5,88.4
Pou2f2,2,153 (active),112
Pou2f2,3,75.2,71.8
